These are yes or no findings as the source states them, for the method shown. Some binding calls cover weakened binding; strength is not graded here. Each block holds one binder with its values, some of them ahead of it.
Tests used:
[1] = target: CTLA4 on CTLA4-expressing CHO cells (human) (UniProt P16410); assay: FACS competition on CHO.CTLA4 cells: 125 ng FITC-CTLA4-26B with unlabeled competitor (key in FIG. 6D)
[2] = target: human CTLA4-Ig (human) (UniProt P16410); assay: ELISA competition assay on human CTLA4-Ig (figure legend)
[3] = target: CTLA4 on CTLA4-expressing CHO cells (human) (UniProt P16410); assay: FACS, direct staining of CHO.CTLA4 cells with 125 ng FITC-labeled murine CTLA4-26B (key in FIG. 6D)
[4] = target: human CTLA4-Ig (human) (UniProt P16410); assay: inhibition ELISA on plate-coated human CTLA4-Ig (10 ug/ml); antibody titrated, then biotin-CD86-Ig at 0.66 ug/ml as the blocked ligand; neutravidin-AP, ABTS
[5] = target: human CTLA4-Ig (human) (UniProt P16410); assay: competition ELISA on plate-coated human CTLA4-Ig (10 ug/ml); cold competitor titrated against biotinylated murine CTLA4-26B; streptavidin-peroxidase, ABTS, O.D. 415 nm
[6] = target: human CTLA4-Ig (human) (UniProt P16410); assay: inhibition ELISA on plate-coated human CTLA4-Ig (10 ug/ml); antibody titrated, then biotin-CD80-Ig at 0.66 ug/ml as the blocked ligand; neutravidin-AP, ABTS
[7] = target: human CTLA4-Ig (human) (UniProt P16410); assay: ELISA on coated human CTLA4-Ig (figure legend)
[8] = target: human CTLA4-Ig (human) (UniProt P16410); assay: ELISA on plate-coated human CTLA4-Ig (10 ug/ml); serial dilutions of antibody, AP-goat anti-mouse, ABTS, OD 405 nm
[9] = target: human CTLA4-Ig (human) (UniProt P16410); assay: ELISA on coated human CTLA4-Ig (10 ug/ml), AP anti-mouse detection

By UniProt entry, the sequences of proteins in these tests, tags left out. Where a name states a change or a piece, a line headed by the entry shows the natural chain unless it says otherwise.
UniProt P16410: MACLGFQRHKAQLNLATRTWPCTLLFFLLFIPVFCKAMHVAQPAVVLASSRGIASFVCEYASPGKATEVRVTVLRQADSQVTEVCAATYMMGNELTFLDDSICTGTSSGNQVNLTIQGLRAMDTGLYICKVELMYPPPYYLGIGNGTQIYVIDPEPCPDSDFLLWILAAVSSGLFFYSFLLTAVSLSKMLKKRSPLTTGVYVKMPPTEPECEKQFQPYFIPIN

binding [1]: binds
B1: humanized anti-CTLA4 antibody 26, IgG1 isotype (antibody, V domains shown)
VH: QVQLQESGPGLVKPSQTLSLTCTVSGFSLTSYGVYWVRQPPGKGLEWLGVIWAGGTTNYNSALMSRLTISKDTSKNQVSLKLSSVTAADTAVYYCARGPPHAMMKRGYAMDYWGQGTLVTVSS
VL: DIQMTQSPSSLSASVGDRVTITCSATSSITYMSWYQQKPGKAPKLLIYDTSNLASGVPSRFSGSGSGTDYTLTISSLQPEDFATYYCQQWSSYPLTFGGGTKVEIK

binding [2]: binds | binding [1]: binds | binding [3]: binds | binding [4]: binds | binding [5]: binds | binding [6]: binds | binding [7]: binds | binding [8]: binds | binding [9]: binds
B2: murine anti-human CTLA4 monoclonal antibody number 26 (antibody, V domains shown)
VH: QVQLKESGPGLVAPSQSLSITCTVSGFSLTSYGVYWVRQPPGKGLEWLGVIWAGGTTNYNSALMSRLSISKDNSKSQVFLKMSSLQTDDTAMYYCARGPPHAMMKRGYAMDYWGQGTSVIVSS
VL: QNVLTQSPAIMPASPGEKVTMTCSATSSITYMSWYQQKSGSSPRLLIYDTSNLASGVPVRFSGSGSGTSYSLTISRMEAEDAATYYCQQWSSYPLTFGAGTKLELK
